Compound in the experiment: CN[C@@H]1C[C@H]2O[C@@](C)([C@@H]1OC)n1c3ccccc3c3c4c(c5c6ccccc6n2c5c31)C(=O)NC4 [staurosporine]
The experiment in a line: log2 fold change of tryptic peptide abundance, ligand vs vehicle (limited proteolysis) (log2 ratio); higher = more trypsin-susceptible (destabilized). The settings on record: ligand concentration: 20 uM; sample: mouse liver crude lysate; replicate design: treated separately.

By UniProt entry, the sequences of proteins in these tests, tags left out. Where a name states a change or a piece, a line headed by the entry shows the natural chain unless it says otherwise.
UniProt Q8C0M0: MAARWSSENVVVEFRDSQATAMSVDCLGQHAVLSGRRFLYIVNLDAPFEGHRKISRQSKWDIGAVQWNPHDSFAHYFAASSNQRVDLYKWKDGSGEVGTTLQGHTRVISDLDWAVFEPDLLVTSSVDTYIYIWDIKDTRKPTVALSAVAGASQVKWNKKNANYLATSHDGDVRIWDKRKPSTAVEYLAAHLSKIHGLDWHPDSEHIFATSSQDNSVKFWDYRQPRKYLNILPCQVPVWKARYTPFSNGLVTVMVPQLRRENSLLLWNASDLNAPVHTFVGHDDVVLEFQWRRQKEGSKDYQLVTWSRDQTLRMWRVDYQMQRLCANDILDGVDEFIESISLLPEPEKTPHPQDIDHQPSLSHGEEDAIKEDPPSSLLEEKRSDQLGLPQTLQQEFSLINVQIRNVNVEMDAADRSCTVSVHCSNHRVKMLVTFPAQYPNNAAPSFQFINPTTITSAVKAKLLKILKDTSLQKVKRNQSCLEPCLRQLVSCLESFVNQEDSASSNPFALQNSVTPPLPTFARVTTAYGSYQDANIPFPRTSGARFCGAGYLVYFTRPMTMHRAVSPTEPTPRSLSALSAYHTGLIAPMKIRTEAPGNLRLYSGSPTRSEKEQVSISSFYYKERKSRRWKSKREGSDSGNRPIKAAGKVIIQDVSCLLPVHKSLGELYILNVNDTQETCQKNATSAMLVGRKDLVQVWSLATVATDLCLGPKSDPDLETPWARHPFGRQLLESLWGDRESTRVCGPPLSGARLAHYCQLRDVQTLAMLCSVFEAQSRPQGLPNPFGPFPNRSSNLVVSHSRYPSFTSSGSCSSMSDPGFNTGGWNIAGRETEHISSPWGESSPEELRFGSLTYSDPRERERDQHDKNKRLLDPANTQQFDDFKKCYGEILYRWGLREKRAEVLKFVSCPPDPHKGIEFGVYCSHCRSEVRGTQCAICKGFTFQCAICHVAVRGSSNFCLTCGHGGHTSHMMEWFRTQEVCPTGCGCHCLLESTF
UniProt Q8C1B1: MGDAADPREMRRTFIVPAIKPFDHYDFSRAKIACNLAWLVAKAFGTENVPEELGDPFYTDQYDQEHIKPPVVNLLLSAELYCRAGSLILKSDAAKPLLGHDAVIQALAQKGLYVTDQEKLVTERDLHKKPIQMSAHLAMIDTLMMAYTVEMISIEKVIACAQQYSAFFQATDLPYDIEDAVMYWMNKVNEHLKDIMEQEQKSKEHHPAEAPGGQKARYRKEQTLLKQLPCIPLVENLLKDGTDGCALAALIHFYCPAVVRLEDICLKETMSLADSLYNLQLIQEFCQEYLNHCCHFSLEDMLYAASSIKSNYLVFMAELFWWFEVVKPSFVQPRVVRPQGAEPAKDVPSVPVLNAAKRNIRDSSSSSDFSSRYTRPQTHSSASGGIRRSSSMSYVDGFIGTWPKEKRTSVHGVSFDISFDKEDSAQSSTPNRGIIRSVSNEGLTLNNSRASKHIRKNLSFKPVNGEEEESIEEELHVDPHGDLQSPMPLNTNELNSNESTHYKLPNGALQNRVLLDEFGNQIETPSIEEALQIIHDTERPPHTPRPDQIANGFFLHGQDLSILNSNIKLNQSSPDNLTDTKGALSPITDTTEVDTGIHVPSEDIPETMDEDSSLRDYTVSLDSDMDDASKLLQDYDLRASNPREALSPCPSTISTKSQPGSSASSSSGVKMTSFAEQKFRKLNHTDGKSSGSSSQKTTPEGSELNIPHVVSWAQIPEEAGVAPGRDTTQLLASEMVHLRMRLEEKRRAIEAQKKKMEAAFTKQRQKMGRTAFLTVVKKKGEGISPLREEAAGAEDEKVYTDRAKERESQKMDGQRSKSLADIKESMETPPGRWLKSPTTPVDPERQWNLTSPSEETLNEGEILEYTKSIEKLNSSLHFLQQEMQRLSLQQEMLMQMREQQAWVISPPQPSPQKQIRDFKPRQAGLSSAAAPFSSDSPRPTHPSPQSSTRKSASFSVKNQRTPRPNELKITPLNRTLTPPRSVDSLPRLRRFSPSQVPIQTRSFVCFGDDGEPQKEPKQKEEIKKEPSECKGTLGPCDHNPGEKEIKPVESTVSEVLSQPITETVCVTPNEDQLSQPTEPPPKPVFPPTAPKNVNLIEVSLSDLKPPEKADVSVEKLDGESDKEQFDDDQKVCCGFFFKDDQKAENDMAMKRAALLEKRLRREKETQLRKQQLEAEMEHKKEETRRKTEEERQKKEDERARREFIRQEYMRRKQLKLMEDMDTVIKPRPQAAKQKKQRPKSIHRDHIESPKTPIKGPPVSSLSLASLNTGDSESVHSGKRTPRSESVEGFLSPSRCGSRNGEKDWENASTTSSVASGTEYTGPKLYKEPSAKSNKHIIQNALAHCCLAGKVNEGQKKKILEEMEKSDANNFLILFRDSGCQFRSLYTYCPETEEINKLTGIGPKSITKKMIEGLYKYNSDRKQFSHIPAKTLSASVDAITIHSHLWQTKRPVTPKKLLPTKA
UniProt Q8C9X6, whole entry: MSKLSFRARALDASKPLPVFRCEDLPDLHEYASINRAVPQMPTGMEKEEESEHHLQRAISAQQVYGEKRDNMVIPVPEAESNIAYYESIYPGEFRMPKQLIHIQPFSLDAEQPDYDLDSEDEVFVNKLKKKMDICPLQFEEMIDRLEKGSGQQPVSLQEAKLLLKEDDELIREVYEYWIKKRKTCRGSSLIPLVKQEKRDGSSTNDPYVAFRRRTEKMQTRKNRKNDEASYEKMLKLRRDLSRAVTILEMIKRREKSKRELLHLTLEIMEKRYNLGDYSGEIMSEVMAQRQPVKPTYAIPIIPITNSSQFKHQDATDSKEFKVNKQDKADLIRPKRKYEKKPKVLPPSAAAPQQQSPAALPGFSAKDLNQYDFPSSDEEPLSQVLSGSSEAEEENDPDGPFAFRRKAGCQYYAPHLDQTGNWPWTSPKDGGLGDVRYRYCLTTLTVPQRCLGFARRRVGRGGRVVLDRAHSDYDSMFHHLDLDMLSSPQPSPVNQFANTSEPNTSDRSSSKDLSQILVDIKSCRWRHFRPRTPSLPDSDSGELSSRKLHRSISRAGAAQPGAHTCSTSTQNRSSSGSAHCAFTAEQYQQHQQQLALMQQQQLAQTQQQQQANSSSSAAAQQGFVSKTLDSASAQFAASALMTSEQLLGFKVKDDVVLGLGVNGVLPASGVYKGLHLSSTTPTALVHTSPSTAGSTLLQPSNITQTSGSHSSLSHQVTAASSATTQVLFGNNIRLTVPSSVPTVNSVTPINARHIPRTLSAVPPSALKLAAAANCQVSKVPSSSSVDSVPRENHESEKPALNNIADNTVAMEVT
UniProt Q8C4B4: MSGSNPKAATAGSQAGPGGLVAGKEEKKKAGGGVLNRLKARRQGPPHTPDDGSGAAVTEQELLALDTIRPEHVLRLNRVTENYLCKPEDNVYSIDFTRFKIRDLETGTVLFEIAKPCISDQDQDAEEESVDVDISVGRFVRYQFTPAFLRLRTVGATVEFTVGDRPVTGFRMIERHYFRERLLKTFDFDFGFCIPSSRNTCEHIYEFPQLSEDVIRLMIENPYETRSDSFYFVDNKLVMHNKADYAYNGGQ
UniProt Q8BWU8: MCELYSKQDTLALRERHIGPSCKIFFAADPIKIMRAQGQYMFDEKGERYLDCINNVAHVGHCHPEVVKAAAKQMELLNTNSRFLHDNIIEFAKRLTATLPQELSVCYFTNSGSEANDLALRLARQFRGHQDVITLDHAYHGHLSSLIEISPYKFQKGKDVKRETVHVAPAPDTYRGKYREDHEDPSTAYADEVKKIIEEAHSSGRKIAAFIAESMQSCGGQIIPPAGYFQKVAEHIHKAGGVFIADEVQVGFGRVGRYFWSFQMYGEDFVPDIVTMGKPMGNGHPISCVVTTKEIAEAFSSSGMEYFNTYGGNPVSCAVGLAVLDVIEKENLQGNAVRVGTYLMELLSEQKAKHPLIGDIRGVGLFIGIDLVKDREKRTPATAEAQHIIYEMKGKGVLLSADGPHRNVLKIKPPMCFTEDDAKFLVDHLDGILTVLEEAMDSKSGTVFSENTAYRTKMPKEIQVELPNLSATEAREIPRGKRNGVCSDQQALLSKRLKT
UniProt Q8C0L6: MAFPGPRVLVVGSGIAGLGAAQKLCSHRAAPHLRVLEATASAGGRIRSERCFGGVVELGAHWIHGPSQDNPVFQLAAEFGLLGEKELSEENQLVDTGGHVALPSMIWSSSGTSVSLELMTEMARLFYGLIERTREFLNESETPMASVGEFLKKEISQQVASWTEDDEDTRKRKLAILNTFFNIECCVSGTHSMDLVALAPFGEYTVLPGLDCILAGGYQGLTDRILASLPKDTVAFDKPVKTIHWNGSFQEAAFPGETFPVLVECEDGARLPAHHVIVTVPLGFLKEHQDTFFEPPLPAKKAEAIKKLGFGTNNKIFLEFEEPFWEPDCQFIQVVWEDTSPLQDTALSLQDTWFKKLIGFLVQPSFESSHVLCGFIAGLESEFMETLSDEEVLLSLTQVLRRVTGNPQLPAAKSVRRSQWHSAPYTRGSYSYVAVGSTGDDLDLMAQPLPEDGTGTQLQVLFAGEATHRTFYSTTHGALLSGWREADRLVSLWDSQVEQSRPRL
UniProt Q8CAA7: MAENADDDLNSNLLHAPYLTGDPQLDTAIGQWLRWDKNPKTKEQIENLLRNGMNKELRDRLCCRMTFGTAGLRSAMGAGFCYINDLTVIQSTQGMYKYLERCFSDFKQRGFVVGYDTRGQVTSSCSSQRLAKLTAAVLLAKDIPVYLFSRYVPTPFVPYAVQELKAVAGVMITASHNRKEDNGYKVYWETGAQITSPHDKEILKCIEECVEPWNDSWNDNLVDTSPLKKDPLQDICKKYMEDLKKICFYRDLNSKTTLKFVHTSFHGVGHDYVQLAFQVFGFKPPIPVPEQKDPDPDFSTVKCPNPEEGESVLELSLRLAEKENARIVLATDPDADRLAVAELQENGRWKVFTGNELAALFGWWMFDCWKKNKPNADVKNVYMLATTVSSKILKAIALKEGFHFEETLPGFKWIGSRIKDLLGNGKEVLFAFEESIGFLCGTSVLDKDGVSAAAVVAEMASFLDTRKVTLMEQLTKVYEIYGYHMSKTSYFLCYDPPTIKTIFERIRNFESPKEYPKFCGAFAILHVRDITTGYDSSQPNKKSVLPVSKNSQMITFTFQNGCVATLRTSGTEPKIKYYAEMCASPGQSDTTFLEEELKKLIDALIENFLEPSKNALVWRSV
UniProt Q8C735: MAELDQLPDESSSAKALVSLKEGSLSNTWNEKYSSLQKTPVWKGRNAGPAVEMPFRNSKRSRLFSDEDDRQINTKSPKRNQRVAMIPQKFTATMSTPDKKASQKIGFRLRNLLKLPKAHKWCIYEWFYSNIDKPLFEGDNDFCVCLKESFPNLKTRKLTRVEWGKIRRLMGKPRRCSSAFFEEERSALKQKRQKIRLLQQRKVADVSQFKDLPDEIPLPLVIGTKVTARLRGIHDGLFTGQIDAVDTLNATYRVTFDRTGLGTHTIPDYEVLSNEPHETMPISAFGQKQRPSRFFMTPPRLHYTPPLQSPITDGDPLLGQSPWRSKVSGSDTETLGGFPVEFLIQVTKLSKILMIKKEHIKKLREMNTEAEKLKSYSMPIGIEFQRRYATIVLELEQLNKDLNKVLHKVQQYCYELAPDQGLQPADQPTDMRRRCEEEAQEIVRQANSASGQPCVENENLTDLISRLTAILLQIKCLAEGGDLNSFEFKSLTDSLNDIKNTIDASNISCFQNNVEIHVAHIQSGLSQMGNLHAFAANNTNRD
UniProt Q8C4J7: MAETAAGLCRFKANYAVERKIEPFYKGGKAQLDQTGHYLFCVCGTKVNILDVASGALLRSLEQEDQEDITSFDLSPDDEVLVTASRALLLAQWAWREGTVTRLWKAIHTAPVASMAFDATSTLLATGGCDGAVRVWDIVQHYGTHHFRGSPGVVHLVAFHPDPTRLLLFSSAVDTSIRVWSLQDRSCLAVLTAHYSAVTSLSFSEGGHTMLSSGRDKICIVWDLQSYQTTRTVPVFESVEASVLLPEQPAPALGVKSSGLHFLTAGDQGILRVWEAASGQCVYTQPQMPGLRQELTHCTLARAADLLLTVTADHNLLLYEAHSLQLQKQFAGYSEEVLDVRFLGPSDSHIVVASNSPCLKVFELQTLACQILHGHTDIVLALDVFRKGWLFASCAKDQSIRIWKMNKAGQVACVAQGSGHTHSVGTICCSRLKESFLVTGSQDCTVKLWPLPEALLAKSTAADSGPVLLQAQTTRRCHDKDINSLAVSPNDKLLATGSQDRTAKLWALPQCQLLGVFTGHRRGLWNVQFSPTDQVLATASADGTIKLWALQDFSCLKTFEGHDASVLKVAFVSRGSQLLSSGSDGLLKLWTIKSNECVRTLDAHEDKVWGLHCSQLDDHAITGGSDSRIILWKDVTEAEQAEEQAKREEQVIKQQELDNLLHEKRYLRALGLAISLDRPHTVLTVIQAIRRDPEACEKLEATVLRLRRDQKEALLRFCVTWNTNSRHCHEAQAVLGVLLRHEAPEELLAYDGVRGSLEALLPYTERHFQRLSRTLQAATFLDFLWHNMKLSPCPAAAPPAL

The other results are listed elsewhere or left out. Most entries show no effect beyond the scatter of the controls.

For the target “UniProt Q8C0M0 (peptide sequence: SSNLVVSHSR, peptide start residue: 790)”, the log2 fold change is -0.143. Regarding “UniProt Q8C156 (peptide sequence: VDAVHADVYR, peptide start residue: 164)”, the log2 fold change came out at 0.0359. Regarding “UniProt Q8BYK6 (peptide sequence: QEEEEAMR, peptide start residue: 570)”, the log2 fold change came to 0.338. With “UniProt Q8C7U1 (peptide sequence: AQAQAQDAELAR, peptide start residue: 403)” the figure was 0.471; with “UniProt Q8C1B1 (peptide sequence: SQPGSSASSSSGVK, peptide start residue: 657)”, -0.456; with “UniProt Q8BZT9 (peptide sequence: ACGVAHSGWK, peptide start residue: 296)”, -0.695.

For the target “UniProt Q8BWZ3 (peptide sequence: KMQQAGMALYK, peptide start residue: 131)”, the log2 fold change worked out at 0.288.

“UniProt Q8C5Q4 (peptide sequence: ATGEADVHFDTHEDAVAAMLKDR, peptide start residue: 438)”: the log2 fold change was found to be 0.962.

For “UniProt Q8BVY0 (peptide sequence: KKVPVSVNLLAK, peptide start residue: 176)”, the log2 fold change is 0.212.

In the case of “UniProt Q8C6B2 (peptide sequence: TFSLDAAPADHSLGPSR, peptide start residue: 518)”, the log2 fold change was -0.432. For “UniProt Q8C9X6 (peptide sequence: ALDASKPLPVFR, peptide start residue: 10)”, the log2 fold change is 0.787.

As for “UniProt Q8C4B4 (peptide sequence: AATAGSQAGPGGLVAGKEEK, peptide start residue: 8)”, the log2 fold change is -0.122.

On to “UniProt Q8BX57 (peptide sequence: KAQTCDHSAPK, peptide start residue: 570)”, for which the log2 fold change was 0.357.

As to “UniProt Q8C0X8 (peptide sequence: IIAGKYPR, peptide start residue: 229)”, the log2 fold change was -0.194. For “UniProt Q8C963 (peptide sequence: SQLQAQSK, peptide start residue: 166)”, the log2 fold change turned out to be 0.563. As to “UniProt Q8BZZ3 (peptide sequence: QVLLTHNR, peptide start residue: 103)”, the log2 fold change was -0.189. Turning to “UniProt Q8BWU8 (peptide sequence: QMELLNTNSR, peptide start residue: 73)”, the log2 fold change was -0.192. Take “UniProt Q8C180 (peptide sequence: YPSFGDASSHPSSR, peptide start residue: 153)”: the log2 fold change was -0.228. With “UniProt Q8C165 (peptide sequence: NTVADDRVQLHVLR, peptide start residue: 380)” the figure was -0.244; with “UniProt Q8C0L6 (peptide sequence: TFYSTTHGALLSGWR, peptide start residue: 470)”, -0.293. In the case of “UniProt Q8CAA7 (peptide sequence: MTFGTAGLR, peptide start residue: 65)”, the log2 fold change was -0.426. With “UniProt Q8C735 (peptide sequence: FTATMSTPDKK, peptide start residue: 90)” the figure was -0.54. For “UniProt Q8BX80 (peptide sequence: RINEDQEEEAVFR, peptide start residue: 40)”, the log2 fold change turned out to be 0.239. In the case of “UniProt Q8C0G2 (peptide sequence: EKEEELR, peptide start residue: 461)” it was -0.00362. On to “UniProt Q8C4J7 (peptide sequence: QQELDNLLHEKR, peptide start residue: 654)”, for which the log2 fold change is -0.341.

The values are drawn from the supplement of paper PMC12819154, “High-throughput peptide-centric local stability assay extends protein–ligand identification to membrane proteins, tissues and bacteria” (Nature Structural & Molecular Biology, 2025).
